# Measurements reported in PubChem BioAssay AID1159584 (Peter MacCallum Cancer Centre, 2016).
# Screen: 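Genes whose loss is lethal only together with E-cadherin loss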 (primary screen)
# System: human MCF10A breast epithelial cells, parental and CDH1-null
# Knock-down reagent: siRNA against human genes
# Detection: 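Cell viability by CellTiter-Glo ATP luminescence, each line scaled to the mean of mock wells across plates, then CDH1-null over parental ratio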
# Direction: CDH1-null / parental viability ratio: higher = CDH1-null cells survive relatively better than parental; CDH1-null viability vs mock: higher = more viable CDH1-null cells; parental viability vs mock: higher = more viable parental cells
# Shown is an unselected part of about 18,000 reagents tested. The record does not give: the amount of reagent, the time to read-out.
Target gene,CDH1-null / parental viability ratio,CDH1-null viability vs mock (fraction of mock),parental viability vs mock (fraction of mock)
STK10 (GeneID 6793),1.06,0.82,0.77
RGS22 (GeneID 26166),1.11,1.08,0.97
CFAP100 (GeneID 348807),1.39,0.78,0.56
CRTC3 (GeneID 64784),0.71,0.61,0.86
FOXB2 (GeneID 442425),0.76,0.29,0.38
CLPB (GeneID 81570),0.97,0.86,0.89
VCAM1 (GeneID 7412),1.13,1.08,0.96
SF3B3 (GeneID 23450),1.2,0.36,0.3
NAT8 (GeneID 9027),0.97,0.74,0.76
TYW3 (GeneID 127253),0.94,0.84,0.89
ITIH6 (GeneID 347365),1.11,1.02,0.92
PPP1R3C (GeneID 5507),1.38,0.98,0.71
PURG (GeneID 29942),1.07,0.94,0.88
PSME2 (GeneID 5721),0.64,0.48,0.75
TNFRSF17 (GeneID 608),1.21,0.69,0.57
MS4A8 (GeneID 83661),0.8,0.7,0.88
AGFG2 (GeneID 3268),1.35,0.88,0.65
HLA-L (GeneID 3139),1.19,1.05,0.88
SAMD11 (GeneID 148398),0.95,0.8,0.84
NEDD1 (GeneID 121441),0.87,0.45,0.52
H4C15 (GeneID 554313),1.01,0.89,0.88
TSHZ1 (GeneID 10194),0.82,0.74,0.9
IRAG2 (GeneID 4033),0.96,1.1,1.14
FBXL9P (GeneID 26231),1.01,1.02,1.01
RAET1L (GeneID 154064),0.73,0.55,0.75
VPS53 (GeneID 55275),1.13,1.15,1.02
C9orf72 (GeneID 203228),1.13,0.77,0.68
PRDM2 (GeneID 7799),1.04,0.98,0.94
INSR (GeneID 3643),0.92,0.7,0.76
AGTPBP1 (GeneID 23287),0.85,0.44,0.52
PRAMEF9 (GeneID 343070),0.96,0.81,0.84
ADGRB3 (GeneID 577),0.57,0.5,0.87
CMTM4 (GeneID 146223),0.85,0.68,0.8
PTCH2 (GeneID 8643),1.21,0.74,0.61
IL2RB (GeneID 3560),0.98,0.78,0.8
STAB1 (GeneID 23166),0.95,0.95,1
PHF8 (GeneID 23133),1.02,0.82,0.8
POLR2L (GeneID 5441),0.89,0.89,1
THNSL1 (GeneID 79896),0.96,0.94,0.98
MAIP1 (GeneID 79568),1.18,0.9,0.76
SPMIP3 (GeneID 200159),1.44,0.52,0.36
INF2 (GeneID 64423),0.88,0.46,0.52
DUSP13B (GeneID 51207),1.46,0.92,0.63
ETAA1 (GeneID 54465),0.88,0.77,0.88
MPO (GeneID 4353),0.79,0.68,0.86
TOGARAM2 (GeneID 165186),1.36,0.53,0.39
TPRA1 (GeneID 131601),0.71,0.87,1.23
ZNF195 (GeneID 7748),1.18,0.84,0.71
MTX1 (GeneID 4580),0.87,0.72,0.83
KDM4D (GeneID 55693),1.16,0.92,0.79
MFAP3L (GeneID 9848),1.07,0.45,0.42
NRDC (GeneID 4898),0.79,0.55,0.7
TEX13A (GeneID 56157),1,0.46,0.46
HHIPL1 (GeneID 84439),0.9,0.81,0.9
SAA2 (GeneID 6289),1,0.4,0.4
IARS2 (GeneID 55699),1.14,0.9,0.79
CHST11 (GeneID 50515),0.87,0.86,0.99
GYPC (GeneID 2995),0.92,1.02,1.11
FBXO8 (GeneID 26269),0.93,0.91,0.98
CHGB (GeneID 1114),1.01,0.79,0.78
WDSUB1 (GeneID 151525),0.98,0.98,1
BEX5 (GeneID 340542),1.08,0.57,0.53
SLC25A19 (GeneID 60386),0.98,0.92,0.94
IL22RA2 (GeneID 116379),0.88,0.56,0.64
KRTAP10-11 (GeneID 386678),0.95,0.82,0.86
CACHD1 (GeneID 57685),1.04,1.03,0.99
RGS17 (GeneID 26575),1.06,0.76,0.72
RTL4 (GeneID 340595),1.05,0.61,0.58
KLHL1 (GeneID 57626),0.59,0.24,0.41
DEFB107B (GeneID 503614),0.96,0.81,0.84
OTOS (GeneID 150677),0.89,1.13,1.27
PSORS1C1 (GeneID 170679),1.17,0.77,0.66
PRM1 (GeneID 5619),0.96,0.65,0.68
CLEC4F (GeneID 165530),1.02,0.96,0.94
VPS37B (GeneID 79720),0.77,0.57,0.74
SNX32 (GeneID 254122),0.88,0.63,0.72
TRIM48 (GeneID 79097),0.93,0.95,1.02
EPAS1 (GeneID 2034),1.12,1.15,1.03
HMBS (GeneID 3145),0.77,0.57,0.74
CPS1 (GeneID 1373),0.91,0.92,1.01
ZNF705A (GeneID 440077),1,0.88,0.88
NUFIP2 (GeneID 57532),1.41,0.62,0.44
FAM81A (GeneID 145773),1,0.86,0.86
SNX3 (GeneID 8724),1.03,1.06,1.03
OR5M10 (GeneID 390167),1.12,0.92,0.82
SEMA3F (GeneID 6405),1.05,0.92,0.88
ECHS1 (GeneID 1892),1.17,1.02,0.87

A portion taken from the entries so far, for reference:
Target gene,CDH1-null / parental viability ratio,CDH1-null viability vs mock (fraction of mock),parental viability vs mock (fraction of mock)
KLHL1 (GeneID 57626),0.59,0.24,0.41
DEFB107B (GeneID 503614),0.96,0.81,0.84
OTOS (GeneID 150677),0.89,1.13,1.27
PSORS1C1 (GeneID 170679),1.17,0.77,0.66
PRM1 (GeneID 5619),0.96,0.65,0.68
CLEC4F (GeneID 165530),1.02,0.96,0.94
VPS37B (GeneID 79720),0.77,0.57,0.74
SNX32 (GeneID 254122),0.88,0.63,0.72
TRIM48 (GeneID 79097),0.93,0.95,1.02
EPAS1 (GeneID 2034),1.12,1.15,1.03
HMBS (GeneID 3145),0.77,0.57,0.74
